Test results taken from paper PMC3905867.
Changes are numbered by the printed parent chain. Numbers in names are those of the source. These are yes or no findings as the source states them, for the method shown. For some of these results: Binding seen in cells or lysates may run through a third protein. For some of these results: Tags and fused reporters may be left off the sequences shown. Some results given as binding are weak or reduced against the parent protein; the word gives no strength. Values belong to the molecule of their own block, whether it stands above or below them.

Assays:
[1] = target: T1, Flag-FAAP24 (full-length, wild type) (human) (UniProt Q9BTP7); assay: co-IP; GFP-FANCM and Flag-FAAP24 over-expressed in cells; which partner was precipitated is not told in the text shown
T1 sequence: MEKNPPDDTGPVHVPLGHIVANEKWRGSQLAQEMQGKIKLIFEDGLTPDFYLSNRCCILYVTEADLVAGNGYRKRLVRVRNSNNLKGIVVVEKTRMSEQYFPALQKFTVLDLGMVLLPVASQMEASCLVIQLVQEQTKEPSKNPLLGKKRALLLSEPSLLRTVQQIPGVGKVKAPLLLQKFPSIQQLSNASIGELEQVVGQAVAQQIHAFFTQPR

[2] = target: T2, full-length human FAAP24 (residues 1–215) (human) (UniProt Q9BTP7); assay: co-expression and co-purification (Ni-NTA, gel filtration); FANCM fragment and FAAP24-His6 co-expressed in E. coli; complex captured on Ni-NTA by the His6 tag of FAAP24 (20 mM Tris-HCl pH 8.0, 500 mM NaCl, 10% glycerol), then Superdex 200 16/60 in 10 mM HEPES pH 7.5, 100 mM NaCl, 2 mM MgCl2
T2 sequence: T1 sequence

[3] = target: T3, N-terminal truncated form of human FAAP24 (residues 17–215) (human) (UniProt Q9BTP7); assay: crystal structure; co-expressed and co-purified FANCMS-FAAP24S complex; hanging drop, 20°C, 1.0 M (NH4)2SO4, 0.1 M HEPES pH 7.2; MAD, refined to 2.9 Å; both purified
T3 sequence: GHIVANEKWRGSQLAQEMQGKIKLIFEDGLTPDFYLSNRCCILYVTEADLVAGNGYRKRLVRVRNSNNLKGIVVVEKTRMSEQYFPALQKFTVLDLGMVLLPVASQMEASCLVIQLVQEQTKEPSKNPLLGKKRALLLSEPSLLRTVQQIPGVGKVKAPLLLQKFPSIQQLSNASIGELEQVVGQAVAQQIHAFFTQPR

[4] = target: T3, N-terminal truncated form of human FAAP24 (residues 17–215) (human); assay: SEC; size-exclusion chromatography of the purified (co-expressed) wild-type and mutant FANCM-FAAP24 complexes used in EMSA; both purified
[5] = target: T4, FAAP24-M2 (R161A/Q164A/K171A), recombinant protein used in EMSA (human) (UniProt Q9BTP7); assay: as above
T4 sequence: T3 sequence with R145A, Q148A, K155A

[6] = target: T5, FAAP24-M1 (H208A), recombinant protein used in EMSA (human) (UniProt Q9BTP7); assay: as above
T5 sequence: T3 sequence with H192A

binding [1]: no binding
Molecule: GFP-FANCMΔNΔH (FANCM 1–1813, both nuclease and (HhH)2 domains deleted) (from UniProt Q8IYD8 1-1813) (domain or fragment)

binding [2]: binds
B1: C-terminal fragment of human FANCM (residues 1727–2048) (domain or fragment, UniProt Q8IYD8 1727-2048)
chain: LAKQSKQTSLNLKDTISEVSDFKPQNHNEVQSTTPPFTTVDSQKDCRKFPVPQKDGSALEDSSTSGASCSKSRPHLAGTHTSLRLPQEGKGTCILVGGHEITSGLEVISSLRAIHGLQVEVCPLNGCDYIVSNRMVVERRSQSEMLNSVNKNKFIEQIQHLQSMFERICVIVEKDREKTGDTSRMFRRTKSYDSLLTTLIGAGIRILFSSCQEETADLLKELSLVEQRKNVGIHVPTVVNSNKSEALQFYLSIPNISYITALNMCHQFSSVKRMANSSLQEISMYAQVTHQKAEEIYRYIHYVFDIQMLPNDLNQDRLKSDI

binding [2]: binds
B2: C-terminal fragment of human FANCM (residues 1799–2048) (domain or fragment, UniProt Q8IYD8 1799-2048)
chain: RPHLAGTHTSLRLPQEGKGTCILVGGHEITSGLEVISSLRAIHGLQVEVCPLNGCDYIVSNRMVVERRSQSEMLNSVNKNKFIEQIQHLQSMFERICVIVEKDREKTGDTSRMFRRTKSYDSLLTTLIGAGIRILFSSCQEETADLLKELSLVEQRKNVGIHVPTVVNSNKSEALQFYLSIPNISYITALNMCHQFSSVKRMANSSLQEISMYAQVTHQKAEEIYRYIHYVFDIQMLPNDLNQDRLKSDI

binding [3]: binds
binding [4]: binds
binding [5]: binds
B3: shorter form of the C-terminal segment of human FANCM (residues 1813–2031) (domain or fragment, UniProt Q8IYD8 1813-2031)
chain: QEGKGTCILVGGHEITSGLEVISSLRAIHGLQVEVCPLNGCDYIVSNRMVVERRSQSEMLNSVNKNKFIEQIQHLQSMFERICVIVEKDREKTGDTSRMFRRTKSYDSLLTTLIGAGIRILFSSCQEETADLLKELSLVEQRKNVGIHVPTVVNSNKSEALQFYLSIPNISYITALNMCHQFSSVKRMANSSLQEISMYAQVTHQKAEEIYRYIHYVFD

binding [6]: binds
B4: FANCM-M1 (K1998A/R1999A), recombinant C-terminal segment used in EMSA (domain or fragment, UniProt Q8IYD8 1813-2031)
chain: B3 chain with K186A, R187A
